The values below come from doi:10.1101/2020.04.01.839274 (bioRxiv, 2020).

The chains behind the UniProt entries cited, without tags or fusion partners. Where a name states a change or a piece, a line headed by the entry shows the natural chain unless it says otherwise. A line that says so, or that is headed by a name, gives the form on record, which may keep a tag or linker.
UniProt Q8VBV3: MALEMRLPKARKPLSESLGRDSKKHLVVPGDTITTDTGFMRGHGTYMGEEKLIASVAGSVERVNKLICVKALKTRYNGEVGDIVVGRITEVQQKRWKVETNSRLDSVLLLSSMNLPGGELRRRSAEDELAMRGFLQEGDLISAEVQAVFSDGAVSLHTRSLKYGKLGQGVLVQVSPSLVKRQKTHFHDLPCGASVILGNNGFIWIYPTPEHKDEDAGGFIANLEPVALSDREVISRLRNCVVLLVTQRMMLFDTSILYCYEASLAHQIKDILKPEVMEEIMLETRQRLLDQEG
UniProt Q9CRA8: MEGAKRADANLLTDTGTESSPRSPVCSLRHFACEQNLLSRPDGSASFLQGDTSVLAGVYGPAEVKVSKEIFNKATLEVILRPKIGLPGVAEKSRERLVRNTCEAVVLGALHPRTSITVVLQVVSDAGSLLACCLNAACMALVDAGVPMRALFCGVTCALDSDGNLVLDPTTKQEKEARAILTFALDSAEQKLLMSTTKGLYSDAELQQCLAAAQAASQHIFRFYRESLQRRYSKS
Myc-tagged mouse EXOSC5 p.Met148Thr (Q9CRA8, form named): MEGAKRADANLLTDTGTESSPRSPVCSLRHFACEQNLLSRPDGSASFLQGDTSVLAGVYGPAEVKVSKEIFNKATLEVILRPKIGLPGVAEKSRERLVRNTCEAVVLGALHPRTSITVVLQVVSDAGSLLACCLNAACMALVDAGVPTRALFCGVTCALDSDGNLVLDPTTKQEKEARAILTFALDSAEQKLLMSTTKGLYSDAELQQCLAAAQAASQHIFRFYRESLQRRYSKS

To fix the notation:
B1: endogenous EXOSC3 (natural protein, mouse (endogenous in Neuro-2a), UniProt Q7TQK4 1-274, looked up)
chain: MAEVLSAGPESVAGCRARAVHKVLNQVVLPGEELVLPDHEDVDGLGGAGEQPLRLNAGARPRLRVVCGPGLRRCGDRLLVTKCGRLRHKEPSGGGGGVYWVDSQQKRYVPVKGDHVIGIVIAKSGDIFKVDVGGSEPASLSYLAFEGATKRNRPNVQVGDLIYGQCVVANKDMEPEMVCIDSCGRANGMGVIGQDGLLFKVTLGLIRKLLAPDCEIVQELGKLYPLEIVFGMNGRIWVKAKTIQQTLILANVLEACEHMTTEQRKQIFARLAES
B2: endogenous EXOSC9 (natural protein, mouse (endogenous in Neuro-2a), UniProt Q9JHI7 1-438, looked up)
chain: MKETPLSNCERRFLLRAIEEKKRLDGRQTYDYRNIRISFGTDYGCCIVELGKTRVLGQVSCELVSPKLNRATEGILFFNLELSQMAAPAFEPGRQSDLLVKLNRLLERCLRNSKCIDTESLCVVAGEKVWQIRVDLHLLNHDGNIIDAASIAAIVALCHFRRPDVSVQGEEVTLYTPEERDPVPLSIHHMPICVSFAFFQQGTYLLVDPNEREERVMDGLLVIAMNKHREICTIQSSGGIMLLKDQVFRCSKIAGVKVAEITELIQKALENDQRVRKEGGKFGFAESIANQRITAFKMETAPIDTSNIEERAEEIIAEAEPPPEVVSQPVLWTPGTAQIGDGIENSWGDLEDSEKEEEEEEGGIDEAVILDDTKMDTGEVSDIGSQGAPIVLSDSEEEEMIILEPEKNPKKIRAQTSANQKAPSKGQGKRKKKKRTAN
B3: endogenous EXOSC10 (natural protein, mouse (endogenous in Neuro-2a), UniProt P56960 1-887, looked up)
chain: MAPPSPREHQSAPATSATKPDAEMVLPGFPDADSFVKFALGSVVAVTKASGGLPQFGDEYDFYRSFPAFQAFCETQGDRLLQCMSRVMQYHGCRSNIKDRSKVTELEDKFDLLVDTNDVILERVGMLLDEASGVNKHQQPVLPAGLQVPKTIVSSWNRKAGEYGKKAKSETFRLLHAKNIVRPQLRFREKIDNSNTPFLPKIFVKPNARKPLPLALSKERRERPQDRPEDLDVPPALADFIHQQRTQQVEQDMFAHPYQYELDHFTPPQSVLQRPKPQLYRAVGETPCHLVSSLDELVELNEKLLGCQEFAVDLEHHSYRSFLGLTCLMQISTRTEDFIVDTLELRSDMYILNESLTDPAIVKVFHGADSDIEWLQKDFGLYVVNMFDTHQAARLLNLARHSLDHLLRLYCGVESNKQYQLADWRIRPLPEEMLSYARDDTHYLLYIYDRMRLELWERGNHQPVQLQVVWQRSRDICLKKFVKPIFTDESYLELYRKQKKHLNSQQLTAFQLLFAWRDKTARREDESYGYVLPNHMMLKIAEELPKEPQGIIACCNPVPPLVRQQINEMHLLIQQAREMPLLKSENAAGVRKSGPLPSAERLENDLFGPHDCSHAPPDNYQNTSTDGTLPLQKQPSLFTEGKEETSVDAGCLLATAVITLFSEPNTEEGGKTPLTVAQKKAQNIMQSFENPFRMFLPSLEHKAHISQAAKFDPSSKIYEISNRWKLASQVQVQKEPKEATKKKVAEQTAAREEAKEEAAAGVLEQAIPVRQQAALENATKKRERATSDLRTIEQKQEKKRLKSSKKAKDPDPPGKDFSPYDYSQSDFRAFAGDSKSKPSSQFDPNKLAPSGKKGVGAKKCKQSVGNKSMSFAVGKSDRGFRHNWPKR

These are yes or no findings as the source states them, for the method shown. Binding seen in cells or lysates may run through a third protein. Some results given as binding are weak or reduced against the parent protein; the word gives no strength.

The target in the first experiment is Myc-tagged wild-type mouse EXOSC2 (mouse) (UniProt Q8VBV3). Put plainly: co-IP.
Consider B1, for which the binding result is “binds”.

For B2, the binding entry is given as “binds”.

Consider B3, for which the binding result is on record as “binds”.

A further experiment concerns the target Myc-tagged mouse EXOSC5 p.Met148Thr (mouse) (UniProt Q9CRA8). Put plainly: co-IP.
Regarding B1, the binding entry is given as “binds”.

As to B2, the binding result is listed as “binds”.

For B3, the binding entry is given as “binds”.

A further experiment concerns the target Myc-tagged mouse EXOSC2 p.G198D (mouse) (UniProt Q8VBV3). Put plainly: co-IP.
As to B1, the binding result was “binds”.

B2: the binding result was “binds”.

Consider B3, for which the binding result was “binds”.

A further experiment has as its target Myc-tagged wild-type mouse EXOSC5 (mouse) (UniProt Q9CRA8). Description: co-IP.
For the molecule B1, the binding entry is “binds”.

With B2, the binding entry was “binds”.

For the molecule B3, the binding result is given as “binds”.
